Measurements: the supplement of paper PMC10849652
The other results are listed elsewhere or left out.

Chains of the proteins cited; added tags and fusions are not shown. Lines headed by an entry give the natural chain unless they say otherwise; changes in a name come on top.
UniProt P51911: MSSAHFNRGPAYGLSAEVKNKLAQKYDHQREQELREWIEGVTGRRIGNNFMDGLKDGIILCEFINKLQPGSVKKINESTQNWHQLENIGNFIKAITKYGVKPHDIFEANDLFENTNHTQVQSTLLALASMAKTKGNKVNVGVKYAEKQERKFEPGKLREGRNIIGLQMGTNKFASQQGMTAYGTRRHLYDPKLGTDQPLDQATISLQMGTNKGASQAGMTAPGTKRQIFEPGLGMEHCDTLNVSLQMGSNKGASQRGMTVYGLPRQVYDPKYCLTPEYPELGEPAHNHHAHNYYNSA
UniProt Q9NQ92: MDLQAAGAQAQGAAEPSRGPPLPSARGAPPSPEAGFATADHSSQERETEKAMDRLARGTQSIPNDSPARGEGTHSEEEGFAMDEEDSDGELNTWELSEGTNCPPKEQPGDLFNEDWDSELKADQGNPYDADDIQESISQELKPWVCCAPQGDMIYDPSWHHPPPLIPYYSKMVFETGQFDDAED
UniProt Q13057: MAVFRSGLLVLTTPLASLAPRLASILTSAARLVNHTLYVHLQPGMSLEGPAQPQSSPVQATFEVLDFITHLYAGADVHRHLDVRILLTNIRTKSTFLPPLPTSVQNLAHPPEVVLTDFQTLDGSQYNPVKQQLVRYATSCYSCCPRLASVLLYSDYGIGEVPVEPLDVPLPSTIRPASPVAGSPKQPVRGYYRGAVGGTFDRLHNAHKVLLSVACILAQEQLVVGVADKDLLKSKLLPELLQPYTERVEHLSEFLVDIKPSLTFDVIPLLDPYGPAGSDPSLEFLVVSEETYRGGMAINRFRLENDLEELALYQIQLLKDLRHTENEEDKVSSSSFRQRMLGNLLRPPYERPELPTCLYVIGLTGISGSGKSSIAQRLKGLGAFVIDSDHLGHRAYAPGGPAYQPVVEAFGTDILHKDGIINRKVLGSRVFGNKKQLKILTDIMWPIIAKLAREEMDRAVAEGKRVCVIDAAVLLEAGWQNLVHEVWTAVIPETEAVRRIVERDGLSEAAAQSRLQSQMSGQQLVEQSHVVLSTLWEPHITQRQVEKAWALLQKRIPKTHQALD
UniProt Q96JB2: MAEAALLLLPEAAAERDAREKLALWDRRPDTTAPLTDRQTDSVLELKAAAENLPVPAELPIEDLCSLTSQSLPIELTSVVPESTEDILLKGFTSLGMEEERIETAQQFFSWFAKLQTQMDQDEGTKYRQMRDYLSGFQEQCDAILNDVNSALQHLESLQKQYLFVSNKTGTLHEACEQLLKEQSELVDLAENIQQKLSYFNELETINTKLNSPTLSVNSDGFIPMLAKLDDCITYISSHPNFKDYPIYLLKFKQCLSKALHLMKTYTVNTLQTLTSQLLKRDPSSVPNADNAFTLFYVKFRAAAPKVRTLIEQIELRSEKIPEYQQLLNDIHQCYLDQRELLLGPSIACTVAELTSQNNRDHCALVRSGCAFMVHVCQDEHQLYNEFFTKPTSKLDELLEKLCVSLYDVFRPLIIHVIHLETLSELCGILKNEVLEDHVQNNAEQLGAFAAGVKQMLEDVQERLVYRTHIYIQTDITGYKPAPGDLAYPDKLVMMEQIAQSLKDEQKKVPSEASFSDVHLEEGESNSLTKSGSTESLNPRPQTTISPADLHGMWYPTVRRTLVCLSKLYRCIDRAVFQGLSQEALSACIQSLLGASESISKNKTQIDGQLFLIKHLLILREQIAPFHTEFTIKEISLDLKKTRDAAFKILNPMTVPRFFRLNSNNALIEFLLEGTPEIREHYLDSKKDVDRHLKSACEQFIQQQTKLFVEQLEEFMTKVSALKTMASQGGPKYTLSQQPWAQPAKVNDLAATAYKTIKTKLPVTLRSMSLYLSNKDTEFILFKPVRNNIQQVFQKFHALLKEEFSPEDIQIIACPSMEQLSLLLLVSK
UniProt Q9NYJ1, whole entry, looked up: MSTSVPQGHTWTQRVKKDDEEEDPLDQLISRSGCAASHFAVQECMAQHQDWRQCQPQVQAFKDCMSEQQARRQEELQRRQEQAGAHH
UniProt P12074, whole entry, looked up: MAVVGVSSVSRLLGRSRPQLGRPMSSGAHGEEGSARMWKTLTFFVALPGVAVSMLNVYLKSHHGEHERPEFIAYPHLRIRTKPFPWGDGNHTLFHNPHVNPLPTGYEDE
UniProt O14579: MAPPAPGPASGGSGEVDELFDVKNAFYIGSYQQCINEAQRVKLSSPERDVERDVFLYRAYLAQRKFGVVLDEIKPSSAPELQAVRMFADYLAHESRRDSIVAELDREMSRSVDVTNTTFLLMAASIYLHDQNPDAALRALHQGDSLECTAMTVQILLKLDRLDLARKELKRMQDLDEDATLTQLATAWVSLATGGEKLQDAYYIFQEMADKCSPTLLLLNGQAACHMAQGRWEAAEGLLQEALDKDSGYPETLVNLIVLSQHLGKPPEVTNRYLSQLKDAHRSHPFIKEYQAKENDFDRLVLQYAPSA
UniProt Q86X83, whole entry, looked up: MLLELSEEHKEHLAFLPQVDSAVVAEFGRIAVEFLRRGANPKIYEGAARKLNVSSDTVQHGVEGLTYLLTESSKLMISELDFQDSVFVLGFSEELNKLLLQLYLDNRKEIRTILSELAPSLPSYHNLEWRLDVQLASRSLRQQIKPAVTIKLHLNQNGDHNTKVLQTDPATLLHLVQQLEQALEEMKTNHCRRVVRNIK

How the values were obtained:
Test in all cases: log2 fold change, soluble protein after heating vs DMSO (PISA); higher = thermal stabilisation; K562 lysate, 10 uM; active = over 0.2 and 3.5 SD of the protein, either way, in both replicates (recomputed)
alvocidib = compound: CN1CC[C@H](c2c(O)cc(O)c3c(=O)cc(-c4ccccc4Cl)oc23)[C@H](O)C1 [alvocidib]
Method in brief: (§1)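 Dounce homogenisation of K562 pellets in PBS pH 7.4 with 1 mM MgCl2 produced a crude extract, used at 1 mg/mL protein. Exposure to 10 μM compound lasted 30 min, and aliquots were then heated for 3 min across 48°C-58°C, pooled and brought to 0.5% NP-40 at 4°C. The supernatant after 21,000xg for 90 min was quantified by TMTpro 16plex LC-MS/MS with channel sums equalised. Duplicate values are given as log-two fold change in thermal stability relative to solvent controls.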

Tubastatin A = compound: CN1CCc2c(c3ccccc3n2Cc2ccc(C(=O)NO)cc2)C1 [Tubastatin A]
Method in brief: as §1

[1] = compound: CNC(=O)C1=CC=CC=C1NC2=NC(=NC=C2Cl)NC3=C(C=C(C=C3)N4CCOCC4)OC
Method in brief: as §1

defactinib = compound: CNC(=O)c1ccc(Nc2ncc(C(F)(F)F)c(NCc3nccnc3N(C)S(C)(=O)=O)n2)cc1 [defactinib]
Method in brief: as §1

[2] = compound: CNc1nc(-c2ccc3c(N)n[nH]c3c2)cc(N2C[C@@H](C(=O)NC3CCCCC3)CC[C@H]2C)n1
Method in brief: as §1

encorafenib = compound: COC(=O)N[C@@H](C)CNc1nccc(-c2cn(C(C)C)nc2-c2cc(Cl)cc(NS(C)(=O)=O)c2F)n1 [encorafenib]
Method in brief: as §1

[3] = compound: COC(=O)[C@H](CCSC)NC(=O)C1=C(C=C(C=C1)NC[C@H](CS)N)C2=CC=CC=C2
Method in brief: as §1

alisertib = compound: COc1cc(Nc2ncc3c(n2)-c2ccc(Cl)cc2C(c2c(F)cccc2OC)=NC3)ccc1C(=O)O [alisertib]
Method in brief: as §1

[4] = compound: COc1cc2nc(-c3cc(F)ccc3O)nc(N[C@@H]3CNC[C@H]3C(C)(C)O)c2cc1OC
Method in brief: as §1

gefitinib = compound: COc1cc2ncnc(Nc3ccc(F)c(Cl)c3)c2cc1OCCCN1CCOCC1 [gefitinib]
Method in brief: as §1

lapatinib = compound: CS(=O)(=O)CCNCc1ccc(-c2ccc3ncnc(Nc4ccc(OCc5cccc(F)c5)c(Cl)c4)c3c2)o1 [lapatinib]
Method in brief: as §1

pictilisib = compound: CS(=O)(=O)N1CCN(Cc2cc3nc(-c4cccc5[nH]ncc45)nc(N4CCOCC4)c3s2)CC1 [pictilisib]
Method in brief: as §1

crizotinib = compound: C[C@@H](Oc1cc(-c2cnn(C3CCNCC3)c2)cnc1N)c1c(Cl)ccc(F)c1Cl [crizotinib]
Method in brief: as §1

[5] = compound: C[C@H](C1=CC=C(C=C1)C(=O)NC2=C3C=CNC3=NC=C2)N
Method in brief: as §1

duvelisib = compound: C[C@H](Nc1ncnc2nc[nH]c12)c1cc2cccc(Cl)c2c(=O)n1-c1ccccc1 [duvelisib]
Method in brief: as §1

gandotinib = compound: Cc1cc(Nc2cc(CN3CCOCC3)c3nc(C)c(Cc4ccc(Cl)cc4F)n3n2)n[nH]1 [gandotinib]
Method in brief: as §1

tozasertib = compound: Cc1cc(Nc2cc(N3CCN(C)CC3)nc(Sc3ccc(NC(=O)C4CC4)cc3)n2)n[nH]1 [tozasertib]
Method in brief: as §1

doramapimod = compound: Cc1ccc(-n2nc(C(C)(C)C)cc2NC(=O)Nc2ccc(OCCN3CCOCC3)c3ccccc23)cc1 [doramapimod]
Method in brief: as §1

bafetinib = compound: Cc1ccc(NC(=O)c2ccc(CN3CC[C@H](N(C)C)C3)c(C(F)(F)F)c2)cc1Nc1nccc(-c2cncnc2)n1 [bafetinib]
Method in brief: as §1

[6] = compound: Cc1cccc(CC(=O)N2CCc3c2ccc(-c2cn(C)c4ncnc(N)c24)c3F)n1
Method in brief: as §1

Measured: log2 fold change

CNN1 (UniProt P51911)
inactive: alvocidib -0.017 | Tubastatin A -0.023 | [1] 0.007 | defactinib 0.029 | [2] 0.035 | encorafenib 0.08 | [3] -0.12 | alisertib -0.028 | [4] 0.082 | gefitinib -0.023 | lapatinib -0.052 | pictilisib 0.011 | crizotinib 0.017 | [5] -0.017 | duvelisib -0.035 | gandotinib 0.002 | tozasertib -0.087 | doramapimod -0.021 | bafetinib -0.056 | [6] 0.008

COPRS (UniProt Q9NQ92)
inactive: alvocidib -0.119 | Tubastatin A 0.084 | [1] -0.036 | defactinib 0.014 | [2] 0.006 | encorafenib 0.054 | [3] 0.06 | alisertib -0.048 | [4] 0.036 | gefitinib -0.106 | lapatinib -0.065 | pictilisib 0.069 | crizotinib 0.002 | [5] -0.304 | duvelisib 0.038 | gandotinib 0.136 | tozasertib -0.001 | doramapimod 0.022 | bafetinib -0.064 | [6] 0.086

COASY isoform 2 (UniProt Q13057)
inactive: alvocidib 0.015 | Tubastatin A -0.124 | [1] -0.003 | defactinib 0.064 | [2] -0.023 | encorafenib -0.012 | [3] 0.032 | alisertib 0.023 | [4] -0.025 | gefitinib -0.005 | lapatinib -0.01 | pictilisib 0.021 | crizotinib -0.084 | [5] -0.072 | duvelisib 0.004 | gandotinib 0.009 | tozasertib -0.022 | doramapimod -0.007 | bafetinib -0.043 | [6] 0.029

COG3 (UniProt Q96JB2)
inactive: alvocidib -0.023 | Tubastatin A -0.09 | [1] 0.042 | defactinib -0.016 | [2] -0.041 | encorafenib -0.013 | [3] -0.045 | alisertib 0.032 | [4] -0.018 | gefitinib -0.026 | lapatinib -0.036 | pictilisib -0.054 | crizotinib -0.062 | [5] -0.036 | duvelisib 0.006 | gandotinib -0.064 | tozasertib 0.015 | doramapimod 0.03 | bafetinib 0.003 | [6] 0.093

COA4 isoform 2 (UniProt Q9NYJ1)
inactive: alvocidib 0.15 | Tubastatin A 0.12 | [1] 0.075 | defactinib 0.121 | [2] -0.037 | encorafenib -0.055 | [3] -0.012 | alisertib 0.088 | [4] -0.045 | gefitinib -0.155 | lapatinib 0.133 | pictilisib 0.03 | crizotinib 0.103 | [5] 0.177 | duvelisib 0.046 | gandotinib -0.186 | tozasertib -0.04 | doramapimod -0.092 | bafetinib 0.028 | [6] -0.192

COX6A1 (UniProt P12074)
inactive: alvocidib 0.006 | Tubastatin A 0.009 | [1] 0.14 | defactinib 0.023 | [2] 0.124 | encorafenib -0.002 | [3] 0.03 | alisertib -0.291 | [4] 0.037 | gefitinib 0.128 | lapatinib 0.025 | pictilisib -0.093 | crizotinib -0.091 | [5] -0.022 | duvelisib 0.038 | gandotinib 0.215 | tozasertib 0.009 | doramapimod 0.039 | bafetinib 0.177 | [6] -0.07

COPE (UniProt O14579)
inactive: alvocidib -0.056 | Tubastatin A 0.002 | [1] -0.026 | defactinib 0.059 | [2] -0.017 | encorafenib 0.04 | [3] -0.008 | alisertib 0.033 | [4] -0.001 | gefitinib 0.01 | lapatinib 0.004 | pictilisib 0.021 | crizotinib -0.072 | [5] -0.108 | duvelisib 0.046 | gandotinib 0.097 | tozasertib 0.045 | doramapimod 0.06 | bafetinib -0.009 | [6] 0.135

COMMD2 (UniProt Q86X83)
inactive: alvocidib -0.037 | Tubastatin A -0.033 | [1] 0.046 | defactinib -0.06 | [2] -0.016 | encorafenib 0.013 | [3] -0.048 | alisertib -0.041 | [4] 0.023 | gefitinib -0.015 | lapatinib 0 | pictilisib -0.059 | crizotinib 0.014 | [5] 0.02 | duvelisib -0.029 | gandotinib -0.142 | tozasertib -0.002 | doramapimod -0.007 | bafetinib 0.007 | [6] -0.032
